In all, about 52,000 sequences went through this assay and about 210 (0.4%) were called active.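 The calls were made as follows: active = gene whose silencing raises cell survival under the drug, median off-target-corrected z-score across its silencing RNAs 2 or more; inactive = the rest.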 The list shows a part of the results.

For 66 sequences, z-score results are on record in PubChem BioAssay AID1347423 (Functional Genomics Laboratory (NCATS/FGL), 2020).

The experiment is described as follows: Resistance to Poly (ADP-Ribose) Polymerase inhibitor: Gene Identification via Genome-wide siRNA Screen. The conditions noted are these: mouse BRCA2 R2336H ES cells, olaparib, CellTiter-Glo viability; stronger effect = higher value. A digest of the protocol: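 Mouse BRCA2 R2336H ES cells were reverse-transfected with siRNA (20 nM final), treated at 48 h with 500 nM olaparib, and read by CellTiter-Glo after 72 h. Scores: MAD-based z per siRNA, median per gene, seed off-target correction.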
(Cellular ATP, detected with luciferase, serves as a proxy for viable cell number.)
For CCCUUUCCUAUUUGUUAUGTT against Serpinb3d, the z-score was inactive: 0.361.

GGCACCAAGUUUGACACGCTT against Zap70: the z-score was inactive: 0.842.

GGAGAACAUCGUUUCCAGCTT against Nlgn1: the z-score was inactive: 0.637.

Regarding “CGAUGUUACUAUAGGAUCUTT against A730036I17Rik”, the z-score was inactive: 0.408.

With GGAAAUGUACAAGACUGAUTT against Anxa2, the z-score is inactive: -0.106.

Turning to GGAGUUCUUCUUCAAUGAGTT against Kcnd3, the z-score is inactive: 0.841.

As for CCCACAAAACAUGACCGCCTT against Sirt6, the z-score is inactive: 0.846.

With CCUCGACUCAUUCAGCUUGTT against Ogg1, the z-score is inactive: -0.0753.

With “CCUUAAAACUUUCUGGUUGTT against 6330407G11Rik”, the z-score is inactive: 0.0707.

Take GGCUAUCCCUGUUGUGUCUTT against Kit: the z-score is inactive: 0.065.

For the sequence “GGAUAACAUGAUCUCUACUTT against 1200014P03Rik”, the z-score was inactive: 0.71.

Turning to GCAAUCUGUUUAGAGAGAGTT against Gm405, the z-score was inactive: 0.119.

As for GGAGCUGACAGACAUAGACTT against Ctnnbl1, the z-score is inactive: -0.457.

With “GCAUAUACCACCAAUGAGATT against 4933439F18Rik”, the z-score was inactive: -0.199.

As to “UAAGGCCAUCUAGUGGAGATT against 1700013L23Rik”, the z-score was inactive: 0.986.

For GCAGGAUUGCAUAUAUCGGTT against Cspg5, the z-score is inactive: 0.536.

Consider GGCGUGAAUGAAUUUGGAATT against Adam22, for which the z-score was inactive: -0.00882.

With “GGUUUCUUGGACAGAAGUGTT against E330028A19Rik”, the z-score is inactive: -0.82.

With GGAAGAAUAUGCCAGAAUGTT against Stra8, the z-score is inactive: -0.179.

“GCCCGUCGGAAAGAAGAAATT against 2310002B06Rik”: the z-score is inactive: -1.12.

For the sequence GCCUCUGUAUGUCAUAUUGTT against LOC545471, the z-score is inactive: 0.213.

On to “GGUUUUAAGCUUGCUUAUGTT against 1110017I16Rik”, for which the z-score is inactive: -0.351.

On to GGCAAAAUUAUGAAUGGCCTT against Rfk, for which the z-score was inactive: 0.826.

With GGCAAACCUGAAGAAGUUCTT against Shank3, the z-score was inactive: -0.217.

As to GGAGAAGCUGGCAAAUAUGTT against Mbl1, the z-score was inactive: 0.891.

As to “GCUUAUUCCCAUAAAUAGATT against 4933425K02Rik”, the z-score is inactive: 1.81.

As for “GGAGAUAGACAUGCCUUUCTT against 1700024C24Rik”, the z-score is inactive: -0.00276.

In the case of GGUUUUCUUAGAUACUUUGTT against Fzd6, the z-score is inactive: -0.174.

Consider CGAUCACCAUGAUGAAUUCTT against Ngfrap1, for which the z-score was inactive: 1.13.

With GGGUGUUUGCUCAGAGAUGTT against Tmem7, the z-score is inactive: 0.923.

Take GCGUAGCUGUAGUGAACCATT against Erh: the z-score is inactive: -1.83.

Turning to GGAUUAUCAUGGUUUGAUCTT against Elp4, the z-score is inactive: 0.0219.

Turning to GGAUUUCCUUUUUAAAUCCTT against Zfp42, the z-score is inactive: 0.0338.

For the sequence “GGCCAAAAUGUUUGUUUGGTT against E030011O05Rik”, the z-score is inactive: -0.59.

CCGUCUACAUAAAUUGCCCTT against Lrfn1: the z-score is inactive: 0.653.

Turning to GCCAAUAGGUGAUUUUCUCTT against Vil1, the z-score is inactive: 1.11.

Take CGUAUGGAGUCCAUUACUATT against Frmd4b: the z-score is inactive: 0.141.

For the sequence “CCUAAGCUUAUCUCAUAUUTT against 4930449I24Rik”, the z-score is inactive: -1.1.

With GGUGCGAGAUGCAUACAUCTT against Cct6b, the z-score was inactive: -1.5.

Regarding “GGAAAAGACAGUCUCUGAATT against D4Bwg1540e”, the z-score is inactive: 0.89.

For the sequence GAGGCCUUCCUUUUCUAUATT against Foxd2, the z-score is inactive: -0.841.

On to CCAUAUCCGUAGGUAUAUCTT against Htr2a, for which the z-score is inactive: 1.02.

Turning to CGGUCUGUUCAUAUCUUACTT against BC027373, the z-score is inactive: 0.464.

With GUGGAAAUGUACUUCUCUGTT against Olfr257, the z-score is inactive: -2.36.

CCAGUUUGCACAAGUUUUCTT against Fyco1: the z-score is inactive: 0.605.

As for GCUACAUGAUGUUUGGCAATT against Crsp9, the z-score was inactive: -0.33.

In the case of GGAUCCCUUGAAAUACCAATT against Lrpap1, the z-score was inactive: -0.432.

CCUAUAGUCUCUGUCAUUUTT against Siat7e: the z-score is inactive: 0.164.

For the sequence GGAACGACAAUAAAGCUUATT against Ninj1, the z-score was inactive: 1.05.

For the sequence GGUUCCAGAGAAACAAAAGTT against Cox7a2, the z-score was inactive: 0.629.

Consider “GGAAGGCAUUGAAGCUGAATT against 1700052N19Rik”, for which the z-score is inactive: 0.98.

On to “CCUGAUGCAACACAGGUCCTT against A630026F21Rik”, for which the z-score is inactive: 0.669.

Regarding GGAAAACAUGUCACAUAAATT against Cd47, the z-score was inactive: -1.89.

For the sequence GGAGAGAUUAGCUCACAUGTT against Slc9a6, the z-score is inactive: -0.0667.

In the case of GGAAAUCCUUUAUAUGUUGTT against Cyp2c70, the z-score was inactive: 0.247.

Take CCCGAAGUACCAAAAAGUUTT against Usp21: the z-score was inactive: -0.411.

With GGACAAGCUGGAAUUAAACTT against LOC230872, the z-score was inactive: 0.189.

On to “GGAGUUGUUGUGCUUUUAATT against C630002M10Rik”, for which the z-score was inactive: -0.722.

With CCAUGAUUCUUCGCACUGUTT against Olfr67, the z-score was inactive: 1.91.

With GGAGGAGACCUUGAUUGAUTT against Cyp46a1, the z-score was inactive: 1.18.

Consider GGAUUAUGCAUAACCAUGATT against Pik3r1, for which the z-score was inactive: 0.76.

With “GGACAUGCUAUAAUGUAUUTT against 9130423L19Rik”, the z-score is inactive: -0.232.

CCGUAAACAACCUUAAGUUTT against Hagh: the z-score is inactive: -0.0815.

Take GGCUGUGUAUUACUGUGCCTT against Vpreb1: the z-score was inactive: 0.264.

Regarding CCGUGCACAACAUUGCCUATT against Qtrt1, the z-score is inactive: -0.504.

With GGUGAUCACUAACAUGACATT against Smpdl3a, the z-score was inactive: 1.83.
